No constants are given. Whether binding was seen depends on the method and setting. Some entries that bind do so weakly or less than the wild type. Sequences can lack the tags named with a protein.

The record followed here is PMC2714318.

The target in this experiment is ASP2 (actinobacteria-specific protein 2; SCO1662) from Streptomyces coelicolor (S. coelicolor) (UniProt Q9ADA5). The experiment in a line: crystal structure; preliminary X-ray crystallographic analysis of ASP2, data not shown; both purified.

B1: ASP2 (actinobacteria-specific protein 2; SCO1662) from Streptomyces coelicolor (protein, UniProt Q9ADA5 1-333)
chain: MIELEGVPELVDPVMVAAFEGWNDAGDAASTAVAHLDREWKGEVFAALDAEDYYDFQVNRPTVFMEDGVRKITWPTTRLSVVRVGGDKPRDLVLVRGIEPSMRWRSFCNELLGFAHELGVELVVVLGALLGDTPHTRPVPISGTTSDADLARRMDLEETKYEGPTGIVGILQEACTHAGVPAVSLWAAVPHYVSQPPNPKATLALLNRLEDLIGVRVPLGELPEDARAWQVGVDQLAAEDTEVAEYVQSLEEARDTAELPEASGEAIAREFERYLRRRDGAGPGGPGGPGGHATADGGDGPAGAPFRRDNPSGRARPPKPPKAGGDDEESSED
As for B1, the binding entry is “binds”.
